PubChem BioAssay AID1259405 – NCATS | 2018
Test: 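Mouse-designed siRNAs used to find CHO productivity engineering targets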 (primary screen). System: Chinese hamster CHO-K1 ovary cells with stable secreted eGFP expression. Reagent: single siRNA against mouse genes, 0.8 pmol siRNA per well (2 µl of 400 nM stock). Duration: 3 days. Measurement: 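Per-well intracellular GFP measured by laser scanning cytometry, plus viability from ATP luminescence, each relative to plate median of non-targeting control wells, in %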. Scale: GFP, % of control: higher = more GFP per well, higher productivity; viability (ATP), % of control: higher = more viable cells (more ATP). Active means: 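Called active when intracellular GFP, relative to negative control, is at or above 120%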.
The whole screen tested about 50,000 reagents; below is a random part of them. In the full data, about 4,000 (8%) are marked active. 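Mouse siRNA library applied to hamster cells; one well for each siRNA.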 Entries without a mark were called inactive. The numbers tell different reagents against one gene apart. Reagent sequences are not shown.

The opening 6 entries, to show the layout:
GFP, % of control | viability (ATP), % of control | target gene | reagent
73.3 | 97.9 | Ifnlr1 (interferon lambda receptor 1) | 1
116 | 79.3 | Ifnlr1 (interferon lambda receptor 1) | 2
124 (active) | 67.1 | Galnt9 (polypeptide N-acetylgalactosaminyltransferase 9) | 1
125 (active) | 135 | Galnt9 (polypeptide N-acetylgalactosaminyltransferase 9) | 2
70.4 | 91.2 | Galnt9 (polypeptide N-acetylgalactosaminyltransferase 9) | 3
30 | 43.5 | Banf1 (BAF nuclear assembly factor 1) | 1

Results, from the first entry:
GFP, % of control | viability (ATP), % of control | target gene | reagent
73.3 | 97.9 | Ifnlr1 (interferon lambda receptor 1) | 1
116 | 79.3 | Ifnlr1 (interferon lambda receptor 1) | 2
124 (active) | 67.1 | Galnt9 (polypeptide N-acetylgalactosaminyltransferase 9) | 1
125 (active) | 135 | Galnt9 (polypeptide N-acetylgalactosaminyltransferase 9) | 2
70.4 | 91.2 | Galnt9 (polypeptide N-acetylgalactosaminyltransferase 9) | 3
30 | 43.5 | Banf1 (BAF nuclear assembly factor 1) | 1
47.9 | 59.3 | Banf1 (BAF nuclear assembly factor 1) | 2
162 (active) | 99.5 | Banf1 (BAF nuclear assembly factor 1) | 3
61.6 | 78.2 | Gm4884 (predicted gene 4884) | 1
90.5 | 78.1 | Gm4884 (predicted gene 4884) | 2
66.6 | 75.1 | Gm4884 (predicted gene 4884) | 3
88.2 | 80.8 | Znrf2 (zinc and ring finger 2) | 1
66.4 | 53.1 | Znrf2 (zinc and ring finger 2) | 2
126 (active) | 49.9 | Znrf2 (zinc and ring finger 2) | 3
64.8 | 61.4 | Acsl1 (acyl-CoA synthetase long-chain family member 1) | 1
124 (active) | 81.6 | Acsl1 (acyl-CoA synthetase long-chain family member 1) | 2
108 | 118 | Acsl1 (acyl-CoA synthetase long-chain family member 1) | 3
90.6 | 75.7 | Bcl9l (B cell CLL/lymphoma 9-like) | 1
66.7 | 94.7 | Bcl9l (B cell CLL/lymphoma 9-like) | 2
162 (active) | 147 | Bcl9l (B cell CLL/lymphoma 9-like) | 3
115 | 85.7 | Or9s27 (olfactory receptor family 9 subfamily S member 27) | 1
140 (active) | 78.5 | Or9s27 (olfactory receptor family 9 subfamily S member 27) | 2
81.9 | 92.7 | Or9s27 (olfactory receptor family 9 subfamily S member 27) | 3
60.4 | 85.4 | Slc49a4 | 1
87.7 | 74.5 | Slc49a4 | 2
85.9 | 60 | Slc49a4 | 3
62.2 | 66.8 | Cgnl1 (cingulin-like 1) | 1
73 | 88.3 | Cgnl1 (cingulin-like 1) | 2
47.5 | 79.7 | Cgnl1 (cingulin-like 1) | 3
62.6 | 98.7 | Hs1bp3 (HCLS1 binding protein 3) | 1
107 | 75.6 | Hs1bp3 (HCLS1 binding protein 3) | 2
58.9 | 56.6 | Rrm2b (ribonucleotide reductase M2 B (TP53 inducible)) | 1
50 | 41.1 | Rrm2b (ribonucleotide reductase M2 B (TP53 inducible)) | 2
64.3 | 80.8 | Or6c201 (olfactory receptor family 6 subfamily C member 201) | 1
71.5 | 80.2 | Or6c201 (olfactory receptor family 6 subfamily C member 201) | 2
108 | 42 | Or6c201 (olfactory receptor family 6 subfamily C member 201) | 3
93.7 | 77.3 | 4930522H14Rik (RIKEN cDNA 4930522H14 gene) | 1
45 | 35.7 | 4930522H14Rik (RIKEN cDNA 4930522H14 gene) | 2
68.6 | 80.6 | 4930522H14Rik (RIKEN cDNA 4930522H14 gene) | 3
65.8 | 47.4 | Asz1 | 1
76.4 | 94.9 | Asz1 | 2
131 (active) | 84.2 | Asz1 | 3
45.3 | 37.6 | Prl5a1 (prolactin family 5, subfamily a, member 1) | 1
93.8 | 80.8 | Prl5a1 (prolactin family 5, subfamily a, member 1) | 2
84.1 | 76.2 | Prl5a1 (prolactin family 5, subfamily a, member 1) | 3
101 | 97.3 | Sptssa (serine palmitoyltransferase, small subunit A) | 1
67.8 | 51.8 | Sptssa (serine palmitoyltransferase, small subunit A) | 2
74.2 | 73.9 | Sptssa (serine palmitoyltransferase, small subunit A) | 3
61.7 | 68.8 | Or8k32 (olfactory receptor family 8 subfamily K member 32) | 1
84.3 | 67.9 | Or8k32 (olfactory receptor family 8 subfamily K member 32) | 2
89.9 | 123 | Or8k32 (olfactory receptor family 8 subfamily K member 32) | 3
67.3 | 78.5 | Dok4 (docking protein 4) | 1
71.7 | 64.8 | Dok4 (docking protein 4) | 2
90.4 | 65.8 | Dok4 (docking protein 4) | 3
78.6 | 96.5 | Stat2 (signal transducer and activator of transcription 2) | 1
69.6 | 79.9 | Stat2 (signal transducer and activator of transcription 2) | 2
58 | 101 | Stat2 (signal transducer and activator of transcription 2) | 3
71.9 | 40.8 | Gipc2 (GIPC PDZ domain containing family, member 2) | 1
90.5 | 69.6 | Gipc2 (GIPC PDZ domain containing family, member 2) | 2
48.2 | 52 | Gipc2 (GIPC PDZ domain containing family, member 2) | 3
62.6 | 73.3 | Atp5mc3 (ATP synthase membrane subunit c locus 3) | 1
79.3 | 90 | Atp5mc3 (ATP synthase membrane subunit c locus 3) | 2
98.5 | 68.7 | Atp5mc3 (ATP synthase membrane subunit c locus 3) | 3
86.1 | 92.4 | Rnf13 (ring finger protein 13) | 1
74.2 | 77.7 | Rnf13 (ring finger protein 13) | 2
72.8 | 70.7 | Rnf13 (ring finger protein 13) | 3
113 | 92.6 | Ttc36 (tetratricopeptide repeat domain 36) | 1
83.6 | 73.6 | Ttc36 (tetratricopeptide repeat domain 36) | 2
123 (active) | 154 | Ttc36 (tetratricopeptide repeat domain 36) | 3
66.3 | 72.3 | Osbpl10 (oxysterol binding protein-like 10) | 1
83.7 | 71.5 | Osbpl10 (oxysterol binding protein-like 10) | 2
123 (active) | 123 | Osbpl10 (oxysterol binding protein-like 10) | 3
81.9 | 105 | Gmppa (GDP-mannose pyrophosphorylase A) | 1
42.4 | 64.7 | Gmppa (GDP-mannose pyrophosphorylase A) | 2
48.7 | 64.8 | Gmppa (GDP-mannose pyrophosphorylase A) | 3
70.6 | 72.8 | Elmo2 (engulfment and cell motility 2) | 1
110 | 111 | Elmo2 (engulfment and cell motility 2) | 2
63.3 | 66 | Elmo2 (engulfment and cell motility 2) | 3
87.1 | 101 | Inpp5k (inositol polyphosphate 5-phosphatase K) | 1
55.5 | 68.7 | Inpp5k (inositol polyphosphate 5-phosphatase K) | 2
50.7 | 61.6 | Inpp5k (inositol polyphosphate 5-phosphatase K) | 3
36.9 | 41.9 | Rps6ka3 (ribosomal protein S6 kinase A3) | 1
81 | 64.1 | Rps6ka3 (ribosomal protein S6 kinase A3) | 2
91.3 | 82.2 | Rps6ka3 (ribosomal protein S6 kinase A3) | 3
